# Results reported in PMC12040169 (PLOS Biology, 2025).
# This is one part of the list.
# System: T1, CTL2-GFP (C. trachomatis L2/434/Bu, GFP-expressing)
# T1 construct: L2/434/Bu, GFP-expressing
# Design: species or system HeLa; Intracellular C. trachomatis growth in HeLa cells, bulk GFP fluorescence relative to DMSO
# Details: bulk GFP, single well; 28.5 h, 10 µM; inhibitor
row,SMILES,% of control remaining [%]
1,CCCCNCCn1cnc2c(N)ncnc21 [CBK057447],135.982
2,O=C(C1CCCO1)N1CCCCCC1c1cc(-c2cccs2)on1 (stereo not shown) [CBK284340],89.5643
3,O=[N+]([O-])c1cc([N+](=O)[O-])c(Nc2ccncc2)c([N+](=O)[O-])c1Nc1ccncc1 [CBK278276],101.094
4,O=C1c2ccccc2C(=O)N1CCCN1CCN(CCCN2C(=O)c3ccccc3C2=O)CC1 [CBK260963],116.412
5,Clc1cccc(-c2cncc(NCC3CCOCC3)n2)c1 [CBK037237],168.046
6,O=C(O)c1ccc(/C=N/N2CCN(Cc3ccccc3)CC2)cc1 [CBK265344],119.48
7,CN(CCCN1CCCCC1)C(=O)C1Cc2cc(Cl)ccc2O1 (stereo not shown) [CBK282162],102.422
8,O=C(NCCN1CCOCC1)c1cccc(S(=O)(=O)N2CCCCCC2)c1 [CBK266668],173.811
9,OCc1ccccc1CN1CCOCC1 [CBK264388C],100
10,COc1ccc(C(=O)Nn2c(SCC(=O)c3ccc(F)cc3)nc3ccccc3c2=O)cc1 [CBK266688],120.538
11,Cc1cccn2c(CN(C)C(C)C(N)=O)c(C(=O)N3CCOCC3)nc12 (stereo not shown) [CBK306592],122.806
12,Cc1ccc2c(CC(=O)N(C)CCN3CCCCC3)coc2c1 [CBK282747],130.714
13,O=S(=O)(Nc1nnn[nH]1)c1ccc(Br)cc1C(F)(F)F [CBK062388],97.4587
14,CCNC(=O)N1CC2(CCN(Cc3cc(OC)c(OC)c(OC)c3)CC2)c2ccccc21 [CBK126689],98.9914
15,COc1cc(NC(=O)Cc2cccc3ccccc23)c(C(=O)O)cc1OC [CBK268206],96.6135
16,Oc1ccc2c(c1)C(O)CC1(CCN(CC(O)c3ccc(-c4ccccc4)cc3)CC1)O2 (stereo not shown) [CBK286351],122.623
17,CCN(CC)C(=O)CN1CCC(Oc2cncc(OCC3COc4ccccc4O3)n2)C1 (stereo not shown) [CBK084374],130.273
18,O=S1(=O)CCN(Cc2cnn(-c3ccc(OC(F)(F)F)cc3)n2)CC1 [CBK112883],96.6533
19,Cc1nnc2sc(-c3ccccc3NC(=S)NC(=O)c3cc4ccccc4o3)nn12 [CBK268845],139.749
20,COc1ccc(C(=O)C2=C(O)C(=O)N(CCN3CCNCC3)C2c2ccc(Cl)c(Cl)c2)cc1 (stereo not shown) [CBK264616],100
21,COC(=O)c1ccccc1NC(=O)CSc1nnc(-c2ccccc2)[nH]1 [CBK266338],154.547
22,CC(Cc1nc(C2(Cl)CC2)cs1)n1cc(Cl)cn1 (stereo not shown) [CBK304715],127.795
23,NC(=O)C1(Cc2cccc(-c3cccs3)c2)CCN(C(=O)COc2ccccc2)CC1 [CBK285741],107.08
24,CC1(C)CC(=O)C2=C(C1)Nc1ccccc1N(C(=S)NCc1ccco1)C2c1cccnc1 (stereo not shown) [CBK267342],200.887
25,CCOCCCn1c(SCC(=O)NC(Cc2ccccc2)C(=O)O)nc2ccccc2c1=O (stereo not shown) [CBK297132],105.146

# By substructure: those above with a carbonyl joined to an NH by a bond outside any ring
row,SMILES,% of control remaining [%]
8,O=C(NCCN1CCOCC1)c1cccc(S(=O)(=O)N2CCCCCC2)c1 [CBK266668],173.811
10,COc1ccc(C(=O)Nn2c(SCC(=O)c3ccc(F)cc3)nc3ccccc3c2=O)cc1 [CBK266688],120.538
11,Cc1cccn2c(CN(C)C(C)C(N)=O)c(C(=O)N3CCOCC3)nc12 (stereo not shown) [CBK306592],122.806
14,CCNC(=O)N1CC2(CCN(Cc3cc(OC)c(OC)c(OC)c3)CC2)c2ccccc21 [CBK126689],98.9914
15,COc1cc(NC(=O)Cc2cccc3ccccc23)c(C(=O)O)cc1OC [CBK268206],96.6135
19,Cc1nnc2sc(-c3ccccc3NC(=S)NC(=O)c3cc4ccccc4o3)nn12 [CBK268845],139.749
21,COC(=O)c1ccccc1NC(=O)CSc1nnc(-c2ccccc2)[nH]1 [CBK266338],154.547
23,NC(=O)C1(Cc2cccc(-c3cccs3)c2)CCN(C(=O)COc2ccccc2)CC1 [CBK285741],107.08
25,CCOCCCn1c(SCC(=O)NC(Cc2ccccc2)C(=O)O)nc2ccccc2c1=O (stereo not shown) [CBK297132],105.146

# Additional records follow.

row,SMILES,% of control remaining [%]
1,O=C(O)/C=C/c1cccc(-c2cncc(N3CCN(Cc4ccccn4)CC3)n2)c1 [CBK066085],113.711
2,COc1c(C)[nH]cc(CN(C)CCC(=O)Nc2cccc(F)c2)c1=O [CBK304201],109.87
3,CN(C)CCNC(=O)c1cccc(-c2cnc(N)c(N3CCN(C)CC3)n2)c1 [CBK063393],99.8307
4,O=C(NCC(c1ccccc1)c1ccccc1)N1CCN(c2ccc(F)cc2)CC1 [CBK156415],95.4568
5,CN1CCN(/N=C/c2c(C(F)(F)F)[nH]n(-c3nc4ccccc4s3)c2=O)CC1 [CBK263163],112.227
6,COc1cccc2ncn(Cc3n[nH]c(C)n3)c(=O)c12 [CBK306938],122.719
7,CC1CCN(Cc2ccc(-c3nnn(CC(=O)NCc4ccc(C(F)(F)F)cn4)n3)cc2)CC1 [CBK149722T],109.685
8,CC(=O)Nc1ccc(CNC(=O)CN2CCCC(c3ncc[nH]3)C2)cc1 (stereo not shown) [CBK307718],111.114
9,CC1c2ccsc2CCN1C(=O)COc1cccc(Br)c1 (stereo not shown) [CBK305434],105.083
10,COc1ccc(N2C(=O)CC(Nc3ccc(Cc4nc5ccccc5[nH]4)cc3)C2=O)cc1 (stereo not shown) [CBK266480],158.016
11,FC(F)(F)c1cccc(Sc2ccc(Cl)c(Cl)c2)n1 [CBK089608],134.781
12,CN(C)S(=O)(=O)NCc1ccc2c(c1)OCO2 [CBK264364],100
13,CCC(O)CNC(=O)c1coc(COc2ccc3sc(C)nc3c2)n1 (stereo not shown) [CBK307700],90.1472
14,CCN1CCN(c2ccc(NC(=O)c3cccc(OCc4ccccc4)c3)cc2)CC1 [CBK266471],160.917
15,Cc1ccccc1OC(C)C(=O)Nc1nnc[nH]1 (stereo not shown) [CBK268605],117.969
16,Cc1cn2c(=O)c3ncn([C@H]4C[C@@H](O)[C@@H](CO)O4)c3nc2[nH]1 [CBK201320],152.438
17,CC(C)NC(=O)[C@H]1CN2CCC1C[C@@H]2Cn1cc(-c2cccc(O)c2)nn1 (stereo partly shown) [CBK288731],139.806
18,CCCCCOc1ccc(C2NC(=O)NC2=O)cc1 (stereo not shown) [CBK287865],133.473
19,CN(C)Cc1nc2c([nH]1)c(=O)n(C)c(=O)n2C [CBK140662],76.9391
20,Oc1nc2ccc(Oc3ccc4nc(O)c(O)nc4c3)cc2nc1O [CBK293978],148.922
21,NC(=O)c1cc2c(OCCCN3CCN(C(c4ccccc4)c4ccccc4)CC3)cccc2[nH]1 [CBK016544],157.66
22,COc1ccc(/C=N/Nc2nc(OC)nc(N3CCOCC3)n2)cc1 [CBK025751],109.565
23,CS(=O)(=O)Nc1ncc(-c2ccco2)cc1C(=O)NCc1nc2ccccc2[nH]1 [CBK076468],119.232
24,Cc1ccc(SCC(=O)Nc2cc([N+](=O)[O-])ccc2O)cc1 [CBK268655],72.0247

# 2 of the compounds above, tab-delimited.
row	SMILES	% of control remaining [%]
11	FC(F)(F)c1cccc(Sc2ccc(Cl)c(Cl)c2)n1 [CBK089608]	134.781
12	CN(C)S(=O)(=O)NCc1ccc2c(c1)OCO2 [CBK264364]	100
